Reference: article PMC9722767

Tested on: T1, MsmR1 (Paenibacillus polymyxa SC2-M1 (SC2 derivative))
T1 sequence (looked up): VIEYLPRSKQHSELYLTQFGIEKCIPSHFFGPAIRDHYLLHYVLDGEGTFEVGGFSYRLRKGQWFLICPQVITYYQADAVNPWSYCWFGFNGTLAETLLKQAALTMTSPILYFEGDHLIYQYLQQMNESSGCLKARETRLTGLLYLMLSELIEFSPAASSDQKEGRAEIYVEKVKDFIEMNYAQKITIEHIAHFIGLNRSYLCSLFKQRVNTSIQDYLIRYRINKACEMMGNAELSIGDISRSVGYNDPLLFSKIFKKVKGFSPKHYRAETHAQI
Assay: EMSA
Conditions: Chemiluminescent EMSA kit (Beyotime); labeled probe about 0.4 uM, competitor about 4 uM, protein gradient; pH and temperature not stated; recombinant protein; residues 1-275; label: biotin (5' of forward primer, from primer name); probe letters rebuilt from the primers and the genome

## GAAGATGTGGCCGGACATGGTATCACCAGTGGGCTGGAGCGATATAGCTTTAAGCATTGCGCATTGCCGGAGCTACACTTTGACGAGGTGCGTCTGGATACCAAATTTATGGGACGTACTGTACGGACACCGCTGCTCATCAGTTCGATGACAGGCGGCAGCGCCGAGACAGGAGCGATTAATGAGCGATTAGCAGAGACAGCAGAGAGACGTGGCTGGGCGCTGGGTGTCGGCTCGGTACGAGCTGCGGTGGAAAAAGAAGAATTGGCCTCAACTTTTGCGGTTCGCCGTCTGGCACCCAGCATCCCGATCCTTGCTAATCTGGGTGCAGTGCAGCTGAACTACGGATTTGGCGTGGATGATTGCCAACGTGCAGTGGAAATTGCCGGAGCGGATA (double strand) [yycN upstream fragment]
  binding result: binds

Where a protein sequence is shown, tags need not be part of it.
